This is an account of results in paper PMC7618045, “Outer membrane utilisomes mediate oligosaccharide uptake in gut Bacteroidetes” (Nature, 2023).

No constants are given. Whether binding was seen depends on the method and setting. Binding seen in cells or lysates may run through a third protein. A yes stands for co-enrichment or nearness to the bait. Other partners may have been found. Where a sequence is shown, tags or fusion partners need not be part of it.

This assay concerns the target T1, SusD^lev with His6 tag (B. thetaiotaomicron) (UniProt Q8A6W4).
T1 sequence (chain, acyl-cysteine as the first residue (lipoprotein)): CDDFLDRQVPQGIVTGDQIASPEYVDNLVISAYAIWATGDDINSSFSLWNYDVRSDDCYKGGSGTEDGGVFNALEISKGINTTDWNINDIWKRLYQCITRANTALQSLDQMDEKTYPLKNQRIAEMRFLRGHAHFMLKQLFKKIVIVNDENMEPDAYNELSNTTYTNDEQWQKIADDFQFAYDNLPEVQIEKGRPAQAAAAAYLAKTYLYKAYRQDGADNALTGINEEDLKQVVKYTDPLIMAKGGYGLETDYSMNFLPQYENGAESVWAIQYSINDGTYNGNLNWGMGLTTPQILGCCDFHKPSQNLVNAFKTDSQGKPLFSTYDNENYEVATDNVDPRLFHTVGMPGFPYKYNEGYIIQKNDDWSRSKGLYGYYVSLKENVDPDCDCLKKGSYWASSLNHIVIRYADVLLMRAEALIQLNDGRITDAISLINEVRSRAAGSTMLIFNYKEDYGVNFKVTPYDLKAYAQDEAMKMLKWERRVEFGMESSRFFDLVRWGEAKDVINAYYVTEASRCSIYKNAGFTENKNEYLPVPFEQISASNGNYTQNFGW
Kind of assay: affinity purification with mass spectrometry; previously studied LDAO-purified SusCD^lev (His6 tag on SusD^lev) from B. theta; SDS-PAGE before and after boiling, weak extra bands identified by mass spectrometry.

B1: GH^lev (Bt1760; GH32 endo-levanase) (enzyme, UniProt Q8A6W6 21-523)
chain: CSDETDPILTQKNWDGTATYFQSSDEHGFSMYYKPQVGFVGDPMPFYDPVAKDFKVMYLQDYRPNPEATYHPIFGVATKDGATYESLGELISCGGRDEQDAAIGTGGTIYNPADKLYYTFYTGNKFKPSSDQNAQVVMVATSPDFKTWTKNRTFYLKGDTYGYDKNDFRDPFLFQTEDGVYHMLIATRKNGKGHIAEFTSADLKEWESAGTFMTMMWDRFYECPDVFKMGDWWYLIYSEQASFMRKVQYFKGRTLEDLKATTANDAGIWPDNREGMLDSRAFYAGKTASDGTNRYIWGWCPTRAGNDNGNVGDVEPEWAGNLVAQRLIQHEDGTLTLGVPDAIDRKYTSAQEVKVMAKDGNMIESGKTYTLGEGASVIFNRLKVHNKISFTVKTASNTDRFGISFVRGTDSASWYSIHVNADEGKANFEKDGDDAKYLFDNKFNIPADNEYRVTIYSDQSVCVTYINDQLSFTNRIYQMQKNPWSLCCYKGEITVSDVQVSTY
modifications: acyl-cysteine as the first residue (lipoprotein)
Turning to B1, the binding result was “binds”.

B2: SusC^lev (natural protein, B. thetaiotaomicron, UniProt Q8A6W3 26-1041, looked up)
chain: GQNITVKGNVTSKTDGQPIIGASVVETTATTNGTITDFDGNFTLSVPVNSTLKITYIGYKPVTVKAAAIVNVLLEEDTQMVDEVVVTGYTTQRKADLTGAVSVVKVDEIQKQGENNPVKALQGRVPGMNITADGNPSGSATVRIRGIGTLNNNDPLYIIDGVPTKAGMHELNGNDIESIQVLKDAASASIYGSRAANGVIIITTKQGKKGQIKINFDASVSASMYQSKMNVLNTEQYGRAMWQAYVNDGENPNGNALGYAYNWGYNADGNPVLYGMTLSKYLDSKNTMPVADTDWFDEITRTGVIQQYNLSVSNGSEKGSSFFSLGYYKNLGVIKDTDFDRFSARMNSDYKLIDDILTIGQHFTLNRTSEVQAPGGIIETALDIPSAIPVYASDGSWGGPVGGWPDRRNPRAVLEYNKDNRYTYWRMFGDAYVNLTPFKGFNLRSTFGLDYANKQARYFTYPYQEGTQTNNGKSAVEAKQEHWTKWMWNAIATYQLEVGKHRGDVMIGMELNREDDSHFSGYKEDFSILTPDYMWPDAGSGTAQAYGAGEGYSLVSFFGKMNYSYADRYLLSLTLRRDGSSRFGKNHRYATFPSVSLGWRITQENFMKELTWLDDLKLRASWGQTGNQEISNLARYTIYAPNYGTTDSFGGQSYGTAYDITGSNGGGVLPSGFKRNQIGNDNIKWETTTQTNVGIDFSLFKQSLYGSLEYYYKKATDILTEMAGVGVLGEGGSRWINSGAMKNQGFEFNLGYRNKTAFGLTYDLNGNISTYRNEILELPETVAANGKFGGNGVKSVVGHTYGAQVGYIADGIFKSQDEVDNHATQEGAAVGRIRYRDIDHNGVIDERDQNWIYDPTPSFSYGLNIYLEYKNFDLTMFWQGVQGVDIISDVKKKSDFWSASNVGFLNKGTRLLNAWSPTNPNSDIPALTRSDTNNEQRVSTYFVENGSFLKLRNIQLGYTVPAVISKKMRMDRLRFYCSAQNLLTIKSKNFTGEDPENPNFSYPIPVNITFGLNIGF
notes: SusC^lev, the TonB-dependent outer membrane transporter (SusC) of the levan PUL of B. thetaiotaomicron; Two copies stand in the utilisome (SusC2D2 core); written here without a tag; also called levan SusC; source: endogenous, B. thetaiotaomicron grown on fructose; co-purified from detergent-solubilised membranes (LDAO sample; DDM sample: Ni2+ column, SEC)
As to B2, the binding entry is “binds”.
